{"source": "PubChem BioAssay AID504764 (Drosophila RNAi Screening Center, 2011)", "aim": "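Knock-downs that raise or lower a Notch target reporter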 (primary screen)", "system": "Drosophila Kc167 cells", "reagents": "long dsRNA against Drosophila genes", "duration": "about 5 days (4 days dsRNA, then 24 h after transfection)", "treatment": "transfection of constitutively active membrane-tethered Notch lacking the extracellular domain, read 24 h later", "detection": "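Firefly luciferase from an E(spl)m3 reporter with active Notch, plus control-promoter and uninduced reporter wells for normalisation; unnormalised counts, duplicate wells a and b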", "reading the numbers": "induced reporter light, run 1, well a and induced reporter light, run 1, well b: higher = more light from the Notch target reporter with active Notch; control promoter light, run 1, well a and control promoter light, run 1, well b: higher = more light from the viral control promoter (cell number, transfection, viability); uninduced reporter light, run 1, well a: higher = more light from the Notch target reporter without active Notch", "active means": "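Hit if the duplicate-averaged log2 ratio of induced to control-promoter light gives a plate-wise z beyond ±2, or induced to uninduced beyond ±1.8; weak-control or discordant-duplicate wells dropped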", "calls": "active = modifier hit (raised or lowered Notch signal); inactive = not a hit", "note": "In all, the deposit lists about 22,000 reagents; shown is an unselected part of those with a known target gene and a result. In the full data, 403 (1.9%) got an active call. 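Unnormalised raw counts per well; ratio z-scores behind the hit calls and whether each hit raises or lowers signal are not deposited.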 The record does not give: the amount of reagent."}
{"target":"MFS3","DRSC id":"DRSC00664","induced reporter light, run 1, well a":1.07e5,"induced reporter light, run 1, well b":1.22e5,"control promoter light, run 1, well a":1.09e5,"control promoter light, run 1, well b":52445,"uninduced reporter light, run 1, well a":8760,"activity call":"inactive"}
{"target":"CG15445","DRSC id":"DRSC20517","induced reporter light, run 1, well a":71745,"induced reporter light, run 1, well b":81945,"control promoter light, run 1, well a":46505,"control promoter light, run 1, well b":42350,"uninduced reporter light, run 1, well a":5425,"activity call":"inactive"}
{"target":"B9d1","DRSC id":"DRSC14993","induced reporter light, run 1, well a":2.22e5,"induced reporter light, run 1, well b":2.56e5,"control promoter light, run 1, well a":1.94e5,"control promoter light, run 1, well b":2.14e5,"uninduced reporter light, run 1, well a":17750,"activity call":"inactive"}
{"target":"lobo","DRSC id":"DRSC14662","induced reporter light, run 1, well a":1.70e5,"induced reporter light, run 1, well b":1.54e5,"control promoter light, run 1, well a":1.96e5,"control promoter light, run 1, well b":1.65e5,"uninduced reporter light, run 1, well a":15165,"activity call":"inactive"}
{"target":"lobo","DRSC id":"DRSC14663","induced reporter light, run 1, well a":1.39e5,"induced reporter light, run 1, well b":1.29e5,"control promoter light, run 1, well a":1.61e5,"control promoter light, run 1, well b":1.80e5,"uninduced reporter light, run 1, well a":11005,"activity call":"inactive"}
{"target":"CG40485","DRSC id":"DRSC20624","induced reporter light, run 1, well a":88285,"induced reporter light, run 1, well b":78500,"control promoter light, run 1, well a":1.11e5,"control promoter light, run 1, well b":1.19e5,"uninduced reporter light, run 1, well a":10640,"activity call":"inactive"}
{"target":"sesB","DRSC id":"DRSC20371","induced reporter light, run 1, well a":68645,"induced reporter light, run 1, well b":51915,"control promoter light, run 1, well a":1.73e5,"control promoter light, run 1, well b":1.24e5,"uninduced reporter light, run 1, well a":4965,"activity call":"inactive"}

The list goes on (2 carried over from the part before).
{"target":"CG40485","DRSC id":"DRSC20624","induced reporter light, run 1, well a":88285,"induced reporter light, run 1, well b":78500,"control promoter light, run 1, well a":1.11e5,"control promoter light, run 1, well b":1.19e5,"uninduced reporter light, run 1, well a":10640,"activity call":"inactive"}
{"target":"sesB","DRSC id":"DRSC20371","induced reporter light, run 1, well a":68645,"induced reporter light, run 1, well b":51915,"control promoter light, run 1, well a":1.73e5,"control promoter light, run 1, well b":1.24e5,"uninduced reporter light, run 1, well a":4965,"activity call":"inactive"}
{"target":"trn","DRSC id":"DRSC11407","induced reporter light, run 1, well a":1.58e5,"induced reporter light, run 1, well b":1.26e5,"control promoter light, run 1, well a":1.75e5,"control promoter light, run 1, well b":1.67e5,"uninduced reporter light, run 1, well a":8325,"activity call":"inactive"}
{"target":"CG11586","DRSC id":"DRSC08203","induced reporter light, run 1, well a":1.44e5,"induced reporter light, run 1, well b":1.31e5,"control promoter light, run 1, well a":98000,"control promoter light, run 1, well b":47780,"uninduced reporter light, run 1, well a":10060,"activity call":"inactive"}
{"target":"Np","DRSC id":"DRSC06089","induced reporter light, run 1, well a":1.64e5,"induced reporter light, run 1, well b":1.59e5,"control promoter light, run 1, well a":2.29e5,"control promoter light, run 1, well b":2.47e5,"uninduced reporter light, run 1, well a":16170,"activity call":"inactive"}
{"target":"Np","DRSC id":"DRSC07094","induced reporter light, run 1, well a":2.14e5,"induced reporter light, run 1, well b":1.83e5,"control promoter light, run 1, well a":1.87e5,"control promoter light, run 1, well b":1.84e5,"uninduced reporter light, run 1, well a":16878,"activity call":"inactive"}
{"target":"Np","DRSC id":"DRSC22421","activity call":"inactive"}
{"target":"CG1542","DRSC id":"DRSC15035","induced reporter light, run 1, well a":42985,"induced reporter light, run 1, well b":43720,"control promoter light, run 1, well a":57920,"control promoter light, run 1, well b":49035,"uninduced reporter light, run 1, well a":2300,"activity call":"inactive"}
{"target":"AspRS-m","DRSC id":"DRSC02646","induced reporter light, run 1, well a":1.15e5,"induced reporter light, run 1, well b":1.37e5,"control promoter light, run 1, well a":1.47e5,"control promoter light, run 1, well b":1.41e5,"uninduced reporter light, run 1, well a":10510,"activity call":"inactive"}
{"target":"spn-B","DRSC id":"DRSC17063","induced reporter light, run 1, well a":3.04e5,"induced reporter light, run 1, well b":2.68e5,"control promoter light, run 1, well a":2.43e5,"control promoter light, run 1, well b":2.53e5,"uninduced reporter light, run 1, well a":20970,"activity call":"inactive"}
{"target":"CG1737","DRSC id":"DRSC19771","induced reporter light, run 1, well a":1.91e5,"induced reporter light, run 1, well b":1.84e5,"control promoter light, run 1, well a":3.52e5,"control promoter light, run 1, well b":2.72e5,"uninduced reporter light, run 1, well a":14085,"activity call":"inactive"}
{"target":"eIF3m","DRSC id":"DRSC07142","induced reporter light, run 1, well a":32505,"induced reporter light, run 1, well b":27835,"control promoter light, run 1, well a":29560,"control promoter light, run 1, well b":32005,"uninduced reporter light, run 1, well a":2530,"activity call":"inactive"}
{"target":"RpL35","DRSC id":"DRSC18347","induced reporter light, run 1, well a":31150,"induced reporter light, run 1, well b":28560,"control promoter light, run 1, well a":34540,"control promoter light, run 1, well b":39965,"uninduced reporter light, run 1, well a":1465,"activity call":"inactive"}
